# Laboratory results published in PubChem BioAssay AID2685 (National Center for Advancing Translational Sciences (NCATS), 2010).
# The whole screen tested about 320,000 compounds, of which about 2,100 (0.66%) were called active. The shares of active, inactive and inconclusive entries below differ from those in the screen. Calls come from the whole dose curve; as a rule, active = well fitted inhibition curve with a large enough effect in the signal ratio, with a control signal flat (not every such curve was filed as active); inconclusive = small, poorly fitted or top-dose-only effect, or effect the other way, or a change in a side signal; inactive = flat fitted curve, though single readings scatter; the % refers to the signal ratio. A potency beside an inconclusive call is a rough fit, not a confirmed value.
# Experiment: qHTS Assay for Lipid Storage Modulators in Drosophila S3 Cells
# Details: BODIPY lipid droplet fluorescence, 18-24 h, cells fed with added oleic acid; lipid storage change, negative = inhibition: at 46.1 µM (top of the series) unless noted
# How it was run: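 Laser-scanning cytometry quantifies lipid droplet accumulation (500–530 nm total intensity; droplet/cell object ratio) in oleic acid-fed (400 uM added) Drosophila S3 cells treated with a concentration series. 20 uM Triacsin C defined 100% inhibition.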
# % is set by controls: 0 for no effect and ±100 for the full control effect; potency is the fitted concentration of half-maximal effect.
Compound,"lipid storage change, negative = inhibition",Potency
Cc1c(Br)cnn1C(C)C(=O)N1CCN(c2ccccc2F)CC1 (stereo not given),inconclusive: -7.27%,
CCOc1ccc2ncc(S(=O)(=O)c3ccccc3)c(N3CCN(c4ccc(OC)cc4)CC3)c2c1,inconclusive: 133%,
COc1cc(/C=N/NC(=O)c2ccc(CSc3nncn3C)cc2)ccc1OCC(=O)N1CC(C)OC(C)C1 (stereo not given),,"inconclusive: 0.116 µM [falling, full curve, poor fit]"
COc1cc(NS(=O)(=O)c2ccc(NC(=O)c3ccc(F)cc3)cc2)ncn1,,"inconclusive: 0.13 µM [activator, full curve, poor fit]"
CCOc1ccccc1C(=O)OC(C)C(=O)Nc1ccc(S(=O)(=O)N2CCCC2)cc1 (stereo not given),,"inconclusive: 0.731 µM [falling, full curve, poor fit]"
CS(=O)(=O)Nc1ccc(C(=O)NCCSC2CCCCC2)cc1,,"inconclusive: 6.51 µM [activator, single point]"
CCCc1cc(C(=O)Nc2cccc(C(C)=O)c2)no1,inconclusive: -19.2%,
CSc1nc(-c2ccco2)nn1C(=O)CCc1ccccc1,inconclusive: -20.2%,
Cc1cccc(Nc2nc(-c3cccs3)cs2)n1,inconclusive: -32.3%,
CCc1ccc(CN(C)C(=O)CCc2nnc(CCc3cccc(OC)c3)o2)nc1,inconclusive: 16.1%,
Cc1cc(S(=O)(=O)ON2C(=O)c3ccccc3C2=O)ccc1F,inconclusive: -69.7%,
Cc1cc2oc(=O)cc(CN3CCN(C/C=C/c4ccccc4)CC3)c2cc1O,,"inconclusive: 32.6 µM [falling, single point]"
CCN(CC(=O)NC1CC1)S(=O)(=O)c1ccc(OC)cc1,inconclusive: -13.5%,
COc1cccc2c1C(=O)C[C@]1(CCCC[C@@H]1C)O2,inconclusive: 105%,
CCOC(=O)c1sc(NCc2ccco2)c(-c2nc3ccccc3s2)c1N,inconclusive: -43.2%,
O=C1C(=O)N(CCCn2ccnc2)C(c2ccc(Br)cc2)/C1=C(\O)c1ccc2c(c1)OCCO2 (stereo not given),inconclusive: 56.6%,
O=C(COc1cc2oc(=O)c3c(c2cc1Cl)CCC3)NCCCN1CCOCC1,,"inconclusive: 29.1 µM [activator, single point]"
COc1cc(CNCc2cccnc2)ccc1OCC(=O)NC(C)(C)C,inconclusive: 30%,
Oc1c(Br)cc(Cl)cc1C=Nc1ccc(N2CCOCC2)cc1,inconclusive: 18.5%,
Cc1ccnc(N2CCC(C(=O)Nc3ccc4c(c3)CCC4)CC2)n1,inconclusive: 18.7%,
Cc1c(C)n(Cc2ccccc2)c2ncnc(NCCN(C)C)c12,inconclusive: 12%,
COc1ccc(NC(=O)c2ccccc2Cl)c(NC(=O)c2ccco2)c1,inconclusive: -62.2%,
O=C(c1ccc(N2CCCC2=O)cc1)N1CCN(c2ccccc2Cl)CC1,inconclusive: 48.8%,
CCCC(=O)N(CCc1ccccc1)Cc1nc2ccccc2c(=O)[nH]1,inconclusive: 17.3%,
COc1ccc(N(CC(=O)NCCc2ccccc2)C(=O)CCC(=O)Nc2ccccn2)cc1,inconclusive: 22.3%,

Compound,"lipid storage change, negative = inhibition",Potency
CCOC(=O)C1=C(O)/C(=C/c2cc(OC)c(OC)c(OC)c2)SC1=Nc1ccc(OC)cc1,inconclusive: -52.5%,
Cc1ccc(N(CC2CO2)S(=O)(=O)c2ccc(C)cc2)cc1 (stereo not given),inconclusive: -21.5%,
O=C(O)CCc1ccc(-c2ccccc2)n1CC(=O)O,inconclusive: -22.7%,
Cc1cccc(NC(=O)CCS(=O)(=O)c2cccc3nsnc23)c1C,inconclusive: 2.12%,
O=C(/C=C/c1ccc(F)cc1)NC(=S)NNC(=O)[C@H]1C[C@@H]1c1ccccc1,,"inconclusive: 29.1 µM [activator, single point]"
CCOC(=O)C1CCN(S(=O)(=O)c2ccc3[nH]c4c(c3c2)CCCC4)CC1,inconclusive: -138%,
COc1cccc(CN(C)CC(=O)NNC(=O)c2ccc(Cl)cc2)c1,,"inconclusive: 29.1 µM [activator, single point]"
COc1cc(C(=O)Nc2ccc3c(c2)OCO3)ccc1-n1cnnn1,inconclusive: 0.238%,
CCc1ccc(CNC(=O)CCC(=O)n2ncc3cc(C)ccc32)cc1,inconclusive: -14.6%,
Cc1cc(Nc2ccccc2)nc(-c2ccccc2O)n1,,"inconclusive: 5.17 µM [activator, full curve]"
CCCOc1c(OC)cccc1C1CC(=O)Nc2cc(OC)c(OC)c(OC)c21 (stereo not given),,"inconclusive: 29.1 µM [falling, single point]"
Cc1ccc(OCC(=O)NNC(=O)Cc2ccc(S(=O)(=O)N3CCOCC3)s2)cc1,inconclusive: 28.6%,
CC12CCC(C(=O)N(NC(=O)c3ccccc3O)C1=O)C2(C)C (stereo not given),inconclusive: -56.1%,
Cc1ccc(CN(C(=O)c2c(F)cccc2F)C2CC(C)(C)NC(C)(C)C2)o1,inconclusive: -13.7%,
CC(C)N1CCN(C(=O)c2cccc(Cl)c2)CC1,inconclusive: -2.95%,
CC(=O)NC(c1cc(F)c2cccnc2c1O)C1CC1 (stereo not given),inconclusive: 2.73%,
CN(C)CCCCOc1ccccc1F,inconclusive: 18.1%,
O=C(NCCF)[C@H]1C[C@@H]1[C@H](NP(=O)(c1ccccc1)c1ccccc1)c1ccccc1,inconclusive: 17.9%,
Nc1ccc2c(c1)C(=O)c1ccccc1C2=O,inconclusive,
Cc1ccccc1Nc1nnc(SCC(=O)N(C)C2CCS(=O)(=O)C2)s1 (stereo not given),inconclusive: 13.5%,
O=C(O)c1cc2ncc(-c3[nH]ncc3[N+](=O)[O-])cn2n1,inactive,
O=C(Nc1ccc(S(=O)(=O)Nc2ccccc2)cc1)C1COc2ccccc2O1 (stereo not given),,"inconclusive: 23.1 µM [cytotoxic, partial curve]"
CCOc1cc(/C=C(/NC(C)=O)C(=O)O)cc(Cl)c1OCc1cccc(Br)c1,inconclusive: -15.3%,
O=C(N/N=C/c1ccc2c(c1)OCO2)c1cc(-c2ccncc2)nc2ccccc12,,"inconclusive: 2.59 µM [activator, partial curve]"
CCOC(=O)COc1c(OC)cc(Cl)cc1C1Nc2ccccc2C(=O)N1c1cccc(C)c1 (stereo not given),inconclusive: -27.1%,

# Of the compounds above, 3 have an aryl thioether with sulfur outside any ring:
Compound,"lipid storage change, negative = inhibition",Potency
COc1cc(/C=N/NC(=O)c2ccc(CSc3nncn3C)cc2)ccc1OCC(=O)N1CC(C)OC(C)C1 (stereo not given),,"inconclusive: 0.116 µM [falling, full curve, poor fit]"
CSc1nc(-c2ccco2)nn1C(=O)CCc1ccccc1,inconclusive: -20.2%,
Cc1ccccc1Nc1nnc(SCC(=O)N(C)C2CCS(=O)(=O)C2)s1 (stereo not given),inconclusive: 13.5%,
